Like-named read-outs stand apart in the source and are kept apart here.
How the values were obtained:
Assay type in all cases: cell-based
[1] = tested on: HCT-116 (human colorectal cancer cell line); assay: MTT cytotoxicity assay, HCT-116 under anoxia or normoxia
Procedure: (§1) We focused our attention on the cytotoxicity of the four series of newly-synthesized compounds (10a–e, 11a–e, 12a–e, and 13a–e) under normoxic or anoxic conditions.
(§2) The data was calculated by the Logit method and presented as IC50 values in Table 1.
(§3) All of the newly-synthesized compounds were screened for in vitro cytotoxicity by MTT assay. The exponentially-growing MRC-5, HCT-116, MDA-MB-231, and HT-29 cells were allowed to grow until 80% confluency, the culture medium was discarded, digested with trypsin, separated centrifugally, then fresh culture medium was added and blown gently into single-cell suspension. Then, the cell suspension was seeded into each well of 96-well microculture plates at a concentration of 1.5 × 10^3–3 × 10^3 cells/well.
(§4) The cells were incubated with 50 μL of 2 mg/mL MTT solution for 4 h in a humidified incubator. The supernatant was discarded, and the media were then replaced with 200 μL of dimethyl sulfoxide to dissolve the purple colored formazan crystals formed in the wells, and their absorbances were measured at 492 nm with a microplate reader (Synergy-HT, BioTek Instruments, Winooski, VT, USA); 200 μL DMSO was set as the blank control.
(§5) The anoxia condition was achieved by placing cells in a sealed hypoxia incubator chamber (Catalog Number 27310, Stemcell Technologies, Inc., Vancouver, BC, Canada) filled with 5% CO2 and 95% N2.

[2] = tested on: MDA-MB-231 (human breast carcinoma cell line, CA IX negative); assay: MTT cytotoxicity assay, MDA-MB-231 under anoxia or normoxia
Procedure: as §1, §2, §3, §4, §5

[3] = tested on: HT-29 (human colon carcinoma cell line, overexpresses high amounts of CA IX); assay: MTT cytotoxicity assay, HT-29 under anoxia or normoxia
Procedure: as §1, §2, §3, §4, §5

[4] = tested on: MRC-5 (human fetal lung fibroblast cells, normal lung cell); assay: MTT cytotoxicity assay, MRC-5 normal cells; conditions: MRC5, MRC-5, normoxia, 96 h MTT
Procedure: as §1, §2, §3
as §4, with “After incubation for 24 h at 37 °C, the four lines of cells were treated with varying concentrations (100, 50, 25, 12.5, and 6.25 μM) of DOX, AAZ, or the derivatives for 96 h. The cells” for “The cells”

Measured: IC50

CC(=O)Nc1nnc(S(N)(=O)=O)s1 [AAZ, acetazolamide, reference compound]
> 100 µM: [1]; HCT-116, anoxia 24 h then normoxia 72 h, MTT, read-out: IC50 HCT-116 Anoxia | [1]; HCT-116, normoxia, 96 h MTT, read-out: IC50 HCT-116 Normoxia | [2]; MDA-MB-231, anoxia 24 h then normoxia 72 h, MTT, read-out: IC50 MDA-MB-231 Anoxia | [2]; MDA-MB-231, normoxia, 96 h MTT, read-out: IC50 MDA-MB-231 Normoxia | [3]; HT-29, anoxia 24 h then normoxia 72 h, MTT, read-out: IC50 HT-29 Anoxia | [3]; HT-29, normoxia, 96 h MTT, read-out: IC50 HT-29 Normoxia | [4]

— article PMC6273433, “Design, Synthesis and Cytotoxicity of Novel Dihydroartemisinin-Coumarin Hybrids via Click Chemistry” (Molecules, 2016)
